In patent publication US20180364250A1:
No constants are given. Whether binding was seen depends on the method and setting. Some results given as binding are weak or reduced against the parent protein; the word gives no strength. Where a sequence is shown, tags or fusion partners need not be part of it.

Amino acid sequences for entries named in this document (tags omitted). A change or cut given only in a name is not applied to a line headed by its entry.
UniProt P0CG48: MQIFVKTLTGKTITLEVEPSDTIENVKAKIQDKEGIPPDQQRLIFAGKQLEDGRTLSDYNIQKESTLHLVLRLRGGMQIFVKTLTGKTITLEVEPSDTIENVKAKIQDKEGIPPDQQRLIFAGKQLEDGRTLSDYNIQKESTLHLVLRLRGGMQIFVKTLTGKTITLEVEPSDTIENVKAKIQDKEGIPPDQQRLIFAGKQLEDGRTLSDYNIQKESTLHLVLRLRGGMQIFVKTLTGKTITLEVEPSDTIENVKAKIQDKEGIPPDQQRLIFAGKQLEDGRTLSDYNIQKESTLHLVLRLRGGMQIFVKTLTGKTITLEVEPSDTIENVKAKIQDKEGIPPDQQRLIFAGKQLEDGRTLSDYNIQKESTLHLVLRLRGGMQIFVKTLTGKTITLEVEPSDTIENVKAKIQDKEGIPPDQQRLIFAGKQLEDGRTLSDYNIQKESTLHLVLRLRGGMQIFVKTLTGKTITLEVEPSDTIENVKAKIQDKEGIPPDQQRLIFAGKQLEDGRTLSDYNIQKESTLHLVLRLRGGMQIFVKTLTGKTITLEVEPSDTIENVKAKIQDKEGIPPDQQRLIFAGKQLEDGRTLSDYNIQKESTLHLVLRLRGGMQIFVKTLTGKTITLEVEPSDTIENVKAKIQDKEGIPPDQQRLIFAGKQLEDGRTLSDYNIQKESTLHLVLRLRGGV

Target: Ubiquitin (free, untagged) (human) (UniProt P0CG48)
Experiment: direct titration, relative fluorescence of 10 nM Alexa488 tSR

B1: Alexa488-tagged tSR (designed binder)
chain: MPSSHHHHHHSSGLVPRGSHMTEEEQIAYAMQMSLREAGGGSDLLCKKGCGYYGNPAWQGFCSKCWREEAHKCAAERAAAE
modifications: Alexa488 fluorophore, attachment site not stated
For B1, which binding is on record?
The binding was “binds”.
